This note sets out measurements from PubChem BioAssay AID248 (DTP/NCI, 2004).

The test system of the assay is L1210 leukemia ip in BDF1 mice, survival T/C. Briefly: NCI In Vivo Anticancer Drug Screen. Data for tumor model L1210 Leukemia (intraperitoneal) in B6D2F1 (BDF1) mice. To be noted: T/C endpoint: mean survival time, higher T/C = longer survival.
The mark [1] stands for this setting: dose: 100.0 mg/kg/injection, schedule: Q01DX001 (ip), vehicle: saline.
The mark [2] stands for this setting: dose: 200.0 mg/kg/injection, schedule: Q01DX001 (ip), vehicle: saline.
The mark [3] stands for this setting: dose: 400.0 mg/kg/injection, schedule: Q01DX001 (ip), vehicle: saline.
The mark [4] stands for this setting: dose: 300.0 mg/kg/injection, schedule: Q01DX001 (ip), vehicle: saline.
Where [5] appears, read: dose: 200.0 mg/kg/injection, schedule: Q01DX009 (ip), vehicle: saline with Tween-80.
Setting [6] is: dose: 400.0 mg/kg/injection, schedule: Q04DX003 (ip), vehicle: saline with Tween-80.
The mark [7] stands for this setting: dose: 200.0 mg/kg/injection, schedule: Q01DX009 (ip), vehicle: Klucel (hydroxypropylcellulose) (HPC).
Where [8] appears, read: dose: 200.0 mg/kg/injection, schedule: Q04DX002 (ip), vehicle: saline with Tween-80.
Setting [9] is: dose: 400.0 mg/kg/injection, schedule: Q04DX002 (ip), vehicle: saline with Tween-80.
The mark [10] stands for this setting: dose: 400.0 mg/kg/injection, schedule: Q01DX009 (ip), vehicle: Klucel (hydroxypropylcellulose) (HPC).
[11] abbreviates: dose: 100.0 mg/kg/injection, schedule: Q01DX009 (ip), vehicle: other.
Where [12] appears, read: dose: 200.0 mg/kg/injection, schedule: Q01DX009 (ip), vehicle: other.
[13] abbreviates: dose: 400.0 mg/kg/injection, schedule: Q01DX009 (ip), vehicle: other.

The list is a part of this screen's results and no random one: it is rich in T/C values a quarter to a half above the control, in often repeated tests (any T/C) and in doses without a T/C. Other doses and runs of a compound stand elsewhere. T/C gives the treated animals as a percentage of the vehicle group. Some entries give survivors of the animals treated and no T/C: the source files T/C as zero there, which appears to mark a toxic dose or a test without result, not a measured value. Some doses without a T/C left all or most animals alive at the check, yet need not have been tolerated: survival well below the control is almost never listed, so the zero probably covers shortened survival too. Counts of survivors are from the toxicity check (mostly the fifth day) where no day follows; animals may have died later. Schedule codes are those of the source, read here as Q, the interval in days (D) or hours (H), X, the number of doses. Some doses were run more than once; the results are listed from low to high. Some molecules as drawn cover several salts, stereoisomers or complexes of the source; a dose is that of the sample tested. Some schedules carry Z or #; the key to these is not given. Where survival is the endpoint, the PubChem record calls one and a half times the control and up active, and a quarter to a half above the control has no call in these data; cut-offs in other NCI protocols can differ. Some T/C values are followed by the survivors on the day toxicity was checked, most often the fifth; without a count, all were alive then.

Regarding `COC(=O)C1=C(C(=O)OC)[C@H]2O[C@H]1[C@@H]1O[C@@H]12`, the survivor count is 0 of 6 (dose: 25.0 mg/kg/injection, schedule: Q01DX009 (ip), vehicle: saline); 0 of 6 (dose: 50.0 mg/kg/injection, schedule: Q01DX001 (ip), vehicle: saline); 0 of 6 under setting [1]; 0 of 6 under setting [2]; 0 of 6 under setting [3].
As for `CCN(CCNc1ccc(C)c2sc3ccccc3c(=O)c12)CC(C)(C)O`, the T/C reads like this: (dose: 90.0 mg/kg/injection, schedule: Q01DX009 (ip), vehicle: saline) 137 % of control; (dose: 133.0 mg/kg/injection, schedule: Q01DX009 (ip), vehicle: saline) 137 and 143 % of control; (dose: 200.0 mg/kg/injection, schedule: Q01DX009 (ip), vehicle: saline sonified) 131 % of control [5 of 6 alive]. The survivor count (dose: 800.0 mg/kg/injection, schedule: Q04DX003 (ip), vehicle: saline) is given as 0 of 6.
Turning to `CCc1ccc(C(=O)O)oc1=O`, the survivor count under setting [4] is on record as 3 of 6.
As to `CC1CN(C(=N)C#N)C(C)CN1C(=N)C#N` (configuration not stated), the survivor count (dose: 50.0 mg/kg/injection, schedule: Q01DX009 (ip), vehicle: saline with Tween-80) is listed as 6 of 6; the survivor count under setting [5] is listed as 3 of 6; the survivor count under setting [6] is on record as 4 of 6.
As for `CC(=O)N1c2ccccc2Sc2cc(C(O)(C(F)(F)F)C(F)(F)F)ccc21`, the survivor count reads like this: under setting [5], 5 of 6; under setting [6], 5 of 6.
For the molecule `O=C(C(=O)c1ccc(Cl)cc1)c1ccc(Cl)cc1`, for the setting “dose: 12.5 mg/kg/injection, schedule: Q01DX009 (ip), vehicle: other”, the survivor count was 6 of 6.
As to `CCCCS(=O)/C=C\S(=O)CCCC` (configuration not stated), where the note is “dose: 400.0 mg/kg/injection, schedule: Q04DX002 (ip), vehicle: saline”, the survivor count is 0 of 3.
Turning to `O=[N+]([O-])/C=C/c1c(Cl)cccc1Cl`, the survivor count by setting is: (dose: 100.0 mg/kg/injection, schedule: Q01DX005 (ip), vehicle: saline with Tween-80) 3 of 7; (dose: 200.0 mg/kg/injection, schedule: Q01DX005 (ip), vehicle: saline with Tween-80) 0 of 7; under setting [7], 1 of 6; (dose: 400.0 mg/kg/injection, schedule: Q01DX005 (ip), vehicle: saline with Tween-80) 0 of 7.
Take `CSC1OC(C(NC(=O)N(C)N=O)C(C)O)C(O)C(O)C1O` (configuration not stated): the T/C (dose: 400.0 mg/kg/injection, schedule: Q04DX003 (ip), vehicle: saline) was 139 % of control.
With `Cc1cc(C)c(NC2=NCCS2)cc1C`, the survivor count runs as follows: under setting [8], 2 of 3; under setting [9], 0 of 3.
Consider `CCCC(O)(CCC)CC(=O)OCC`, for which the survivor count (dose: 100.0 mg/kg/injection, schedule: Q04DX003 (ip), vehicle: saline sonified) is recorded as 6 of 6.
As to `CC/C=N\N=C(N)N`, where the note is “dose: 480.0 mg/kg/injection, schedule: Q01DX Z (ip), vehicle: saline”, the survivor count was 0 of 6.
Consider `CC1OC(=O)C(C)(Br)OC1=O` (configuration not stated), for which, for the setting “dose: 400.0 mg/kg/injection, schedule: Q01DX001 (ip), vehicle: acetone”, the survivor count is reported as 2 of 6.
As to `CN(C)CCCN1CC2C3CCCCC3=C3CCCCC3C2C1` (configuration not stated), the survivor count under setting [1] is 2 of 4, the survivor count under setting [2] was 0 of 4 and the survivor count under setting [3] is given as 0 of 4.
For `COC(=O)C1=C(O)C(=O)N(c2ccccc2)C1`, the survivor count (dose: 200.0 mg/kg/injection, schedule: Q01DX001 (ip), vehicle: saline with Tween-80) is 1 of 3 and the survivor count (dose: 400.0 mg/kg/injection, schedule: Q01DX001 (ip), vehicle: saline with Tween-80) was 0 of 3.
In the case of `CCOC(=O)C1CC2CCC1CC2` (configuration not stated), the survivor count under setting [8] was 0 of 3 and the survivor count under setting [9] is recorded as 0 of 3.
With `O=C(O)/C=C\C(Cl)(Cl)Cl`, the survivor count under setting [9] is recorded as 1 of 3.
Turning to `Cc1cc(S(=O)(=O)F)cc(Cl)c1S`, the survivor count (dose: 100.0 mg/kg/injection, schedule: Q04DX002 (ip), vehicle: saline with Tween-80) is on record as 1 of 3.
For `Cn1c(Cc2ccccc2)nc(=O)c2ccccc21`, the survivor count runs as follows: (dose: 75.0 mg/kg/injection, schedule: Q01DX001 (ip), vehicle: acetone) 1 of 6; (dose: 150.0 mg/kg/injection, schedule: Q01DX001 (ip), vehicle: acetone) 0 of 6; (dose: 300.0 mg/kg/injection, schedule: Q01DX001 (ip), vehicle: acetone) 0 of 6.
With `CC(C)c1ccc(/C=C2\CSC/C(=C/c3ccc(C(C)C)cc3)C2=O)cc1`, the survivor count (dose: 50.0 mg/kg/injection, schedule: Q01DX009 (ip), vehicle: saline) is reported as 5 of 6; the survivor count under setting [1] is on record as 6 of 6; the survivor count (dose: 100.0 mg/kg/injection, schedule: Q01DX009 (ip), vehicle: saline) is listed as 4 of 6; the survivor count under setting [3] is listed as 6 of 6.
On to `CC(=O)NC1C(OC(C)=O)OC(COC(c2ccccc2)(c2ccccc2)c2ccccc2)C(O)C1OC(C)=O` (configuration not stated), for which the survivor count (dose: 100.0 mg/kg/injection, schedule: Q04DX003 (ip), vehicle: saline with Tween-80) is 0 of 3 and 3 of 3.
For `Cc1ccc(S(=O)(=O)N(CCCc2c(C)nc(N)nc2Cl)c2ccccc2)cc1`, the survivor count (dose: 200.0 mg/kg/injection, schedule: Q01DX001 (ip), vehicle: Klucel (hydroxypropylcellulose) (HPC)) was 3 of 3.
Take `COc1ccc(OC)c(NC(=O)Nc2ccc(Nc3ccccc3)cc2)c1`: for the setting “dose: 100.0 mg/kg/injection, schedule: Q04DX003 (ip), vehicle: Klucel (hydroxypropylcellulose) (HPC)”, the survivor count is 6 of 6.
In the case of `CC=NC(C)(C)C`, the survivor count is, setting by setting: (dose: 100.0 mg/kg/injection, schedule: Q01DX009 (ip), vehicle: saline with Tween-80) 3 of 3; under setting [5], 2 of 3.
For `FC(F)(F)c1ccc(Cl)c(NC2=NCCCS2)c1`, the survivor count is on record as 5 of 6 (dose: 150.0 mg/kg/injection, schedule: Q01DX009 (ip), vehicle: saline); 0 of 6 (dose: 300.0 mg/kg/injection, schedule: Q01DX009 (ip), vehicle: saline); 4 of 6 under setting [10].
Turning to `CCOC(=O)c1ccc(NC(=S)NC(=O)c2cccc3ccccc23)cc1`, the T/C was 90, 93, 95 % of control under setting [11]; 86 % of control under setting [12]; 91, 93, 95 % of control under setting [13]. The survivor count is 3 of 3 under setting [11]; 3 of 3 and 6 of 6 under setting [12]; 6 of 6 under setting [13].
Regarding `O=P1(c2ccccc2)C=C(Cl)CC1` (configuration not stated), the survivor count under setting [4] is reported as 0 of 6.
`CC1=CC(=C(c2ccccc2)c2ccccc2)C=C(C)C1=O`: the survivor count is recorded as 5 of 6 under setting [7] and 2 of 6 under setting [10].
`CC(C)C[CH2][Pb]([CH2]CC(C)C)([CH2]CC(C)C)[O]C(=O)C(C)C`: the survivor count was 1 of 6 (dose: 6.25 mg/kg/injection, schedule: Q01DX009 (ip), vehicle: Klucel (hydroxypropylcellulose) (HPC)); 0 of 3 and 3 of 3 (dose: 12.5 mg/kg/injection, schedule: Q04DX002 (ip), vehicle: Klucel (hydroxypropylcellulose) (HPC)); 2 of 3 (dose: 25.0 mg/kg/injection, schedule: Q04DX002 (ip), vehicle: Klucel (hydroxypropylcellulose) (HPC)); 0 of 3 (dose: 50.0 mg/kg/injection, schedule: Q04DX002 (ip), vehicle: Klucel (hydroxypropylcellulose) (HPC)); 1 of 3 (dose: 100.0 mg/kg/injection, schedule: Q04DX002 (ip), vehicle: Klucel (hydroxypropylcellulose) (HPC)); 1 of 3 (dose: 200.0 mg/kg/injection, schedule: Q04DX002 (ip), vehicle: Klucel (hydroxypropylcellulose) (HPC)). Where the note is “dose: 400.0 mg/kg/injection, schedule: Q04DX002 (ip), vehicle: Klucel (hydroxypropylcellulose) (HPC)”, the survivor count is listed as 0 of 3.
